Results published in article PMC12757530.
Results are given in words; binding and its absence hold for the method and conditions named. In cells and extracts the contact can be indirect. Some binding calls cover weakened binding; strength is not graded here.

Chains of the proteins cited; added tags and fusions are not shown.
UniProt P46938: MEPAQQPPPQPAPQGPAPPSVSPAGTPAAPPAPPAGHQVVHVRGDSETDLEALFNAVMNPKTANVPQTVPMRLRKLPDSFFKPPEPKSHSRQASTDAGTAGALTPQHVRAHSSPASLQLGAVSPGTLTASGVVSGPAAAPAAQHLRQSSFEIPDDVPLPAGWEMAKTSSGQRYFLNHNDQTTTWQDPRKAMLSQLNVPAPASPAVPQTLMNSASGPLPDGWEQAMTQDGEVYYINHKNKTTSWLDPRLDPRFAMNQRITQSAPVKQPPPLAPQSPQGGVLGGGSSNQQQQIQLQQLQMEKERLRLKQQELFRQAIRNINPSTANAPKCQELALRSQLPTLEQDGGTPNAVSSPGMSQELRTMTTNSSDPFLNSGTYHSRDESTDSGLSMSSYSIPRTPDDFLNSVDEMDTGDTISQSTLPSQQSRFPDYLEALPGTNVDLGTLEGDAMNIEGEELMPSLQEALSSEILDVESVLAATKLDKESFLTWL

Target: Yes-associated protein (YAP) (mouse (endogenous in mouse skin)) (UniProt P46938)
Experiment: co-IP; wild-type and Tg mouse skin lysate; IP with anti-YAP antibody, IgG isotype control; Western blot for TMEM207 and YAP

binding: binds
B1: Transmembrane protein 207 (TMEM207) (protein, UniProt P86045 30-143)
chain: DLSCEENEMCVNYDERYPDGWYIWFFLLIFLVVLLCGVVLFCLQCWLKRCGINPPRRTMAVFAVGDLDPVYGAEMAGSPTSGICHPTQNTELCSAPCFGALGPPPPYEEILKAN
